# Values from PubChem BioAssay AID1259276 (Sanger Institute, 2017).
# Screen: 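Kinome-wide search for kinases colon cancer cells need, and for drug partners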 (primary screen)
# System: human C2BBe1 colorectal cancer cells
# Reagent: siRNA pool against human genes
# Treatment: DMSO vehicle, or one anchor drug: BYL719 at 1 µM, cetuximab at 5 µg/ml, or trametinib at 10 nM; exposure length not stated
# Measured: 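Cell viability as a fraction of non-targeting control wells, mean of replicates, also as a control-based robust z-score, plus a synergy score for each anchor drug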
# Scale: viability robust z-score, siRNA alone and viability vs control, siRNA alone: higher = more viable cells after knock-down; synergy score with BYL719: higher = stronger combined killing with BYL719; synergy score with cetuximab: higher = stronger combined killing with cetuximab; synergy score with trametinib: higher = stronger combined killing with trametinib
# Active means: 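a siRNA pool tested without drug is essential if its viability robust z-score falls under -3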
# Calls: active = essential (siRNA alone); inactive = no change (siRNA alone)
# The whole screen tested 794 reagents; shown is an unselected part. In the full data, 24 (3%) got an active call. 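Calls come only from the siRNA-alone arm; drug synergy scores do not affect them.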 Unmarked entries are inactive. Viability is capped at 1. No sequences are given here. The record does not give: the amount of reagent, the time to read-out.
Gene,"viability robust z-score, siRNA alone","viability vs control, siRNA alone",synergy score with BYL719,synergy score with cetuximab,synergy score with trametinib
MINK1 (GeneID 50488),0.472,1,0.125,-0.0115,-0.0667
CHKA (GeneID 1119),0.472,1,0.0552,0.00015,-0.0667
MED24 (GeneID 9862),0.472,1,-0.142,-0.0115,-0.0667
IP6K3 (GeneID 117283),0.472,1,0.156,0.218,0.0384
PRKCB (GeneID 5579),0.472,1,0.0693,-0.0115,-0.0388
MAP4K2 (GeneID 5871),-0.729,0.924,0.33,0.0428,-0.0491
NME7 (GeneID 29922),0.472,1,-0.0314,0.0947,-0.0667
ACVRL1 (GeneID 94),0.472,1,0.0614,-0.0115,-0.0667
GRK4 (GeneID 2868),0.472,1,0.125,0.0682,-0.0667
TRPM7 (GeneID 54822),0.472,1,0.0525,-0.0115,-0.0667
PIK3R1 (GeneID 5295),-0.126,0.962,-0.105,-0.0487,-0.102
GUCY2C (GeneID 2984),0.472,1,-0.115,0.176,0.00124
AK1 (GeneID 203),0.472,1,0.121,-0.0115,-0.0667
PDGFRB (GeneID 5159),0.0759,0.975,0.0901,0.158,0.198
RELA (GeneID 5970),-0.321,0.95,0.102,-0.0119,-0.06
PANK2 (GeneID 80025),0.472,1,-0.142,0.0199,-0.0667
PIK3R3 (GeneID 8503),0.472,1,-0.142,-0.0115,0.154
PIP5K1B (GeneID 8395),-1.83,0.855,0.0286,0.00191,-0.0633
ZAP70 (GeneID 7535),0.472,1,-0.0427,-0.00946,0.124
PTK2B (GeneID 2185),0.472,1,-0.109,0.214,0.0758
CMPK1 (GeneID 51727),0.472,1,-0.142,-0.0115,-0.0667
TSSK2 (GeneID 23617),0.472,1,-0.0177,0.108,0.142
DAPK2 (GeneID 23604),0.472,1,-0.00355,-0.0115,-0.0667
SMG1 (GeneID 23049),0.472,1,-0.142,-0.0115,-0.0299
TEX14 (GeneID 56155),-0.957,0.91,-0.0672,-0.00968,0.00234
MAP3K12 (GeneID 7786),0.472,1,0.00737,-0.0115,-0.0535
KSR1 (GeneID 8844),-2.36,0.822,0.127,0.0184,0.0353
WNK2 (GeneID 65268),0.472,1,-0.126,-0.0115,-0.0667
ACVR2A (GeneID 92),0.472,1,0.164,0.246,0.464
PTK7 (GeneID 5754),-4.23 (active),0.704,-0.101,-0.127,-0.303
PAK5 (GeneID 57144),0.472,1,-0.105,0.135,-0.0667
MOK (GeneID 5891),0.472,1,-0.124,-0.0115,0.177
ACSL6 (GeneID 23305),0.472,1,-0.142,-0.0115,-0.0667
AXL (GeneID 558),0.472,1,-0.136,0.19,-0.0667
MSR1 (GeneID 4481),0.472,1,-0.0795,-0.0115,-0.0667
CDK9 (GeneID 1025),0.472,1,-0.134,0.123,-0.0667
PTPRU (GeneID 10076),0.332,0.991,0.0522,0.0489,0.0809
CDK3 (GeneID 1018),0.472,1,-0.106,-0.0115,-0.0269
PRKAR2A (GeneID 5576),0.442,0.998,-0.143,0.326,-0.0685
CDK12 (GeneID 51755),-1.54,0.873,-0.139,-0.0908,-0.174
AMHR2 (GeneID 269),0.472,1,0.0459,0.109,-0.0667
MAGI3 (GeneID 260425),0.472,1,-0.000531,0.12,-0.00924
NEK3 (GeneID 4752),0.287,0.988,0.163,0.0299,-0.0776
RNASEL (GeneID 6041),0.472,1,-0.142,-0.0115,-0.0667
FGFR4 (GeneID 2264),0.136,0.979,-0.16,-0.0324,-0.0865
PIP4K2C (GeneID 79837),0.472,1,-0.0435,0.00602,-0.0479
INSRR (GeneID 3645),-4.21 (active),0.705,-0.0396,-0.197,-0.217
MPP3 (GeneID 4356),-4.49 (active),0.687,0.177,-0.279,-0.112
STK3 (GeneID 6788),0.472,1,-0.061,0.181,-0.0667
HSPB8 (GeneID 26353),-2.9,0.788,-0.324,0.631,-0.138

Records listed so far called active, once more:
Gene,"viability robust z-score, siRNA alone","viability vs control, siRNA alone",synergy score with BYL719,synergy score with cetuximab,synergy score with trametinib
PTK7 (GeneID 5754),-4.23 (active),0.704,-0.101,-0.127,-0.303
INSRR (GeneID 3645),-4.21 (active),0.705,-0.0396,-0.197,-0.217
MPP3 (GeneID 4356),-4.49 (active),0.687,0.177,-0.279,-0.112
